# About 17,000 (5.5%) of roughly 310,000 compounds were called active. Inconclusive results, whose numbers are uncertain, are shown with a selection of clear calls. Calls come from the whole dose curve; as a rule, active = well fitted inhibition curve with a large enough effect; inconclusive = small, poorly fitted or top-dose-only effect, or effect the other way; inactive = no such curve, though single readings can be large or run the other way. Potencies of inconclusive entries are doubtful fits and often do not repeat.
# Sequences of proteins named here, by UniProt entry; tags and fusion partners are left off. A change or cut given only in a name is not applied to a line headed by its entry.
# UniProt P51450: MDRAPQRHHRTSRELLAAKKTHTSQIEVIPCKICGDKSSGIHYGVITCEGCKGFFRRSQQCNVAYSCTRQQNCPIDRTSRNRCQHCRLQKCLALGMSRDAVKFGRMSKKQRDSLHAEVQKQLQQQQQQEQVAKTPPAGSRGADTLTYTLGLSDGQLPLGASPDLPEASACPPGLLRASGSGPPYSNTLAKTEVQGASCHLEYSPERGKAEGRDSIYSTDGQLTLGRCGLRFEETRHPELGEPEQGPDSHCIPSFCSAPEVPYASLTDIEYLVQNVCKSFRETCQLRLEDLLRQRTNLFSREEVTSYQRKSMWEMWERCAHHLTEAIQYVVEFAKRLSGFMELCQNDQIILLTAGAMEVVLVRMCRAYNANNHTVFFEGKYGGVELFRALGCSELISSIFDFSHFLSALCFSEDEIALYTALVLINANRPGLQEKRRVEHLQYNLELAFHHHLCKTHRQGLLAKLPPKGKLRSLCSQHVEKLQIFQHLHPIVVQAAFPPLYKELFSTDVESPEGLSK
# Target: Nuclear receptor ROR-gamma (Mus musculus) (UniProt P51450)
# Experiment: qHTS for inhibitors of ROR gamma transcriptional activity; note: nearly all actives have a fitted effect of over 60% in size
# Conditions: Drosophila S2 Gal4-RORgamma UAS-luciferase reporter, 20 h; activity change, negative = inhibition: at 53.6 µM (top of the series)
# How it was run: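 Drosophila Schneider cells stably carrying a metallothionein-driven Gal4 DBD–ROR gamma fusion and a UAS-Photinus luciferase reporter were exposed to compound for 1 hr, then induced with copper sulfate (700 uM final) for 20 hr at ambient temperature before luminescence reading.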
# % is set by controls: 0 for no effect and ±100 for the full control effect; potency is the fitted concentration of half-maximal effect.
Structure (SMILES),Potency,"activity change, negative = inhibition"
COc1cc(/C=C2/SC(=O)NC2=O)ccc1OCc1ccccc1,"inconclusive: 17.8 µM [activator, partial curve]",
C/C(=N/NC(=O)CSc1nc2ccccc2s1)c1ccncc1,,inactive: 19.6%
Cc1cccc(NC(=O)CN2C(=S)NC(C)(C)CC2C)c1C (centres undefined),"inconclusive: 22.4 µM [inhibitor, single point]",
COc1ccc2nc3cccc(OC)c3nc2c1,"inconclusive: 31.6 µM [inhibitor, single point]",
CCN(CC)C(=O)c1ccc(Nc2nnc(C)c3ccccc23)cc1,"inconclusive: 11.2 µM [activator, partial curve, poor fit]",
COc1cccc(/C(C)=N/Nc2ncc(Cl)cc2Cl)c1,active: 12.6 µM,
Cc1ccc(S(=O)(=O)NCCC2=CCCCC2)cc1C(N)=O,"inconclusive: 0.891 µM [activator, partial curve]",
Cc1ccc(/C=C/c2ccc(=O)n(Cc3ccc(F)cc3)n2)cc1,,inactive: 20.9%
CCOC(=O)Cc1csc(NC(=O)NC2(C(F)(F)F)Oc3cc(Cl)c(Cl)cc3O2)n1,"inconclusive: 15.8 µM [activator, single point]",
NC(=O)c1ccc2nc(-c3ccc(Oc4ccc(Cl)cc4)cc3)[nH]c2c1,"inconclusive: 6.31 µM [inhibitor, single point]",
CCOC(=O)c1c(NC(=O)CSc2nnc(-c3cccnc3)o2)sc(C(C)=O)c1C,active: 10 µM,
Cc1cc(C)cc(N(CCC(=O)Nc2nnc(C)s2)S(=O)(=O)c2ccc(Cl)cc2)c1,,inactive: -1.3%
COc1cc2c(cc1OC)C(CC#N)=NC(C)(C)C2,,inactive: 3.52%
CCCCn1c(SCC(=O)NCc2ccco2)nc2ccccc2c1=O,"inconclusive: 11.2 µM [inhibitor, single point]",
Cc1ccccc1N=C(NOCc1ccccc1)c1nonc1N,"inconclusive: 10 µM [activator, partial curve]",
CC(Sc1nc(N)c2c3c(sc2n1)CSC(C)(C)C3)C(=O)Nc1ccccc1 (centres undefined),"inconclusive: 15.8 µM [activator, single point]",
COc1ccc(C2C(C(=O)NCc3ccco3)c3ccccc3C(=O)N2C)cc1 (centres undefined),,inactive: 19.3%
COC(=O)c1ccc(Oc2ccc(C(C)(C)C)cc2)c([N+](=O)[O-])c1,"inconclusive: 20 µM [activator, partial curve]",
Cc1nn2c(NCCN(C)C)c3c(nc2c1-c1ccccc1)CCCC3,"inconclusive: 0.562 µM [inhibitor, full curve, poor fit]",
COc1nc(-c2ccccc2)ccc1-c1noc(-c2ccco2)n1,"inconclusive: 28.2 µM [activator, single point]",
CCOc1ccc(-c2c(=O)n(OCc3ccccn3)c3ccccc3[n+]2[O-])cc1,,inactive: -9.75%
O=C(O)c1ccccc1C(=O)c1ccc(Oc2ccccc2)cc1,"inconclusive: 14.1 µM [activator, partial curve]",
CCn1nc(C)cc1C(=O)OCC(=O)c1ccc(Cl)cc1,,inactive: 6.83%
CCc1ccc(S(=O)(=O)/N=C2\C=C(Nc3cccc(C(=O)O)c3)C(=O)c3ccccc32)cc1,active: 11.2 µM,
O=C1C=CC(=O)N1Cc1ccccc1,"inconclusive: 17.8 µM [inhibitor, single point]",

# Compounds from the list above with an aryl thioether with sulfur outside any ring:
Structure (SMILES),Potency,"activity change, negative = inhibition"
C/C(=N/NC(=O)CSc1nc2ccccc2s1)c1ccncc1,,inactive: 19.6%
CCOC(=O)c1c(NC(=O)CSc2nnc(-c3cccnc3)o2)sc(C(C)=O)c1C,active: 10 µM,
CCCCn1c(SCC(=O)NCc2ccco2)nc2ccccc2c1=O,"inconclusive: 11.2 µM [inhibitor, single point]",
CC(Sc1nc(N)c2c3c(sc2n1)CSC(C)(C)C3)C(=O)Nc1ccccc1 (centres undefined),"inconclusive: 15.8 µM [activator, single point]",

# More results:

Structure (SMILES),Potency,"activity change, negative = inhibition"
CC1CCN(c2nc(-c3ccco3)c3c(c2C#N)CC(C)(C)OC3)CC1,"inconclusive: 28.2 µM [inhibitor, single point]",
Cc1cc(C(=O)CSc2nnc(N)s2)c(C)n1CCc1ccc(F)cc1,"inconclusive: 15.8 µM [activator, partial curve, poor fit]",
O=C(c1ccco1)n1nc(-c2ccccc2)nc1SCc1ccccc1,,inactive: 20.3%
COc1ccc(C(=O)Nn2c(SCC(=O)c3ccccc3)nc3ccccc3c2=O)cc1,active: 11.2 µM,
CCc1cccc(N(C(=O)c2csnn2)C(C(=O)NC2CCCCC2)c2cccnc2)c1 (centres undefined),,inactive: -1.72%
c1ccc(-c2noc(C34CC5CC(CC(C5)C3)C4)n2)cc1,"inconclusive: 2 µM [activator, single point]",
CCCCCSc1nc2c(cnn2-c2ccccc2)c(=O)[nH]1,,inactive: -22.3% [at 0.365 µM]
CCCc1nc(N2CCOCC2)c2sc(=S)n(-c3ccccc3)c2n1,,inactive: -15.7%
O=C(Nc1cccc(-c2cn3ccccc3n2)c1)c1cc2ccccc2oc1=O,"inconclusive: 17.8 µM [inhibitor, single point]",
CCOC(=O)c1cnc(SC2CC(=O)N(c3ccc(C)cc3)C2=O)nc1N (centres undefined),"inconclusive: 35.5 µM [inhibitor, single point]",
Cc1cc2c(ncn2C)c(NS(=O)(=O)c2ccc(Cl)cc2)c1C,,inactive: 1.86%
Cc1ccc(CSc2n[nH]c(N)n2)cc1,,inactive: -0.103%
CCOC(=O)N1CCN(C(=O)CSCC(=O)Nc2nc(-c3ccccc3)cs2)CC1,"inconclusive: 6.31 µM [activator, single point]",
O=C(NNC(=O)c1ccccc1O)c1cccc(Br)c1,active: 5.01 µM,
OCc1ncccc1O,"inconclusive: 2.51 µM [inhibitor, partial curve, poor fit]",
COc1ccc(/C=C2/N=C(c3cccs3)OC2=O)cc1OC(C)C,"inconclusive: 31.6 µM [activator, single point]",
Cn1c(=O)c2c(nc(N3CCN(Cc4ccccc4)CC3)n2CCSc2ncccn2)n(C)c1=O,,inactive: 38.8%
CC1(C)CC2(C)OCCN2C(=S)N1 (centres undefined),"inconclusive: 28.2 µM [inhibitor, single point]",
CC1(C)Cc2c(sc3nc(C4CCCCC4)n(N)c(=O)c23)CO1,"inconclusive: 35.5 µM [activator, single point]",
Brc1cc2c(cc1CN1CCc3ccccc3C1)OCO2,,inactive: -6.55%
Oc1ccc(N=Nc2ccc3ccccc3c2)cc1,active: 6.31 µM,
N#CC1=C(N)OC2=C(C(=O)CC(c3ccco3)C2)C1c1ccc(OCc2c(F)cccc2Cl)cc1 (centres undefined),,inactive: 15.5%
CC(C)N1C(=O)c2ccccc2N(Cc2ccccc2)S1(=O)=O,,inactive: 9.89%
CCOC(=O)C1(CCOc2ccccc2)CCN(Cc2nccn2CC)CC1,active: 5.01 µM,

# — PubChem BioAssay AID2551 (National Center for Advancing Translational Sciences (NCATS), 2010)
